Reference: PubChem BioAssay AID2685 (National Center for Advancing Translational Sciences (NCATS), 2010)
Screen size: about 320,000 compounds; about 2,100 (0.66%) were called active. The inconclusive results got no clear call from the source; some entries with a clear call stand among them for comparison. Calls follow the shape of the dose curve; as a rule, active = well fitted inhibition curve with a large enough effect in the signal ratio, with a control signal flat (not every such curve was filed as active); inconclusive = small, poorly fitted or top-dose-only effect, or effect the other way, or a change in a side signal; inactive = flat fitted curve, though single readings scatter; the % refers to the signal ratio. Where the call is inconclusive, the potency comes from a doubtful curve fit.
% is scaled to controls: 0 for no effect and ±100 for the full control effect; potency is read from the fitted curve at half-maximal effect.

Test: qHTS Assay for Lipid Storage Modulators in Drosophila S3 Cells
Settings: BODIPY lipid droplet fluorescence, 18-24 h, cells fed with added oleic acid; lipid storage change, negative = inhibition: at 46.1 µM (top of the series) unless noted
Procedure, shortened: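 Drosophila S3 cells got compounds at several concentrations plus oleic acid (400 uM solution). Laser-scanning cytometry with 488 nm excitation read lipid droplets at 500-530 nm and cells at 575-640 nm. Percent activity was relative to 20 uM Triacsin C.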
In the case of `OCCCn1c(-c2ccccc2)csc1=Nc1ccccc1`, the lipid storage change, negative = inhibition is reported as inconclusive: 11.5%. With `O=c1c2ccccc2oc2cc(NCCCN3CCOCC3)ccc12` the lipid storage change, negative = inhibition was inconclusive: 183%. With `COc1ccc(OCCC(=O)OCC(=O)NCCc2ccccc2)cc1` the lipid storage change, negative = inhibition was inconclusive: -18.2%. For `CCCN(CCC)CCCNC(=O)c1ccc(CS(=O)(=O)c2c(Cl)cccc2Cl)o1`, the lipid storage change, negative = inhibition was inconclusive: 15.1%. For `CC(=O)CCc1ccc(Oc2nc(-c3cccnc3)nc3ccccc23)cc1`, the lipid storage change, negative = inhibition was inconclusive: 0.765%. With `CSc1nc(-c2ccccc2)c(-c2ccccc2)[nH]1` the lipid storage change, negative = inhibition was inconclusive: -38.3%. For `O=C(NN1C(=O)/C(=C\c2cccnc2)SC1=S)C(c1ccccc1)c1ccccc1`, the lipid storage change, negative = inhibition was inconclusive: -13.6%. For `OCC1(CCOc2ccccc2)CCN(Cc2ccccc2C(F)(F)F)CC1`, the lipid storage change, negative = inhibition was inconclusive: 208%. In the case of `Cc1nc(SCC(=O)NC(=O)NCCC(C)C)c2c(-c3cccs3)csc2n1`, the lipid storage change, negative = inhibition is reported as “inactive”. In the case of `COCC(=O)N1CCC(Oc2ccc(C(=O)N(C)C(C)c3ccon3)cc2)CC1` (centres undefined), the Potency is reported as inconclusive: 6.51 µM [falling, single point]. For `N#CC(=C=[N-])c1nc2ccccc2nc1-[n+]1cccc(NC(=O)c2cccs2)c1`, the lipid storage change, negative = inhibition was inconclusive: -8.72%. In the case of `Cc1ccc(NC(=O)CN(C)C(=O)COC(=O)/C=C/c2cccs2)cc1`, the Potency is reported as inconclusive: 10.3 µM [activator, partial curve]. For `CCC(=O)Nc1cccc(C(=O)/C=C/c2ccccc2)c1`, the lipid storage change, negative = inhibition was inconclusive: 48.2%. In the case of `COC(=O)c1ccc(N)c(N=CC2=C(O)CC(C)(C)CC2=O)c1`, the lipid storage change, negative = inhibition is reported as inconclusive: 11.4%. In the case of `Brc1ccc(CNc2ccc3ncccc3c2)cc1`, the Potency is reported as inconclusive: 29.1 µM [falling, partial curve, poor fit]. In the case of `COc1ccc(-c2ncccc2OC(=O)C23CC4CC(CC(C4)C2)C3)cc1`, the lipid storage change, negative = inhibition is reported as inconclusive: -14%. With `CC(=O)Nc1nc2n(n1)C(c1ccc(F)cc1)C=C(c1ccccc1)N2` (centres undefined) the lipid storage change, negative = inhibition was inconclusive: 19.5%. For `O=C(Nc1ccc(C(F)(F)F)cc1Cl)c1ccc(Cn2cc(Br)cn2)o1`, the lipid storage change, negative = inhibition was inconclusive: -2%. In the case of `COC(=O)C1CCN(S(=O)(=O)Cc2ccccc2Cl)CC1`, the lipid storage change, negative = inhibition is reported as inconclusive: 11.7%. With `COC(=O)C1=C(C)N(c2cccc3ccccc23)C(=O)C1` the lipid storage change, negative = inhibition was inconclusive: -5.92%. In the case of `CN(CC(=O)Nc1ccc(Cl)c(C(F)(F)F)c1)C(=O)c1cc(-c2ccncc2)nc2ccccc12`, the lipid storage change, negative = inhibition is reported as inconclusive: 5.81%. In the case of `Cc1ccc(NC(=O)/C(C#N)=C/c2ccsc2)c(C)c1`, the lipid storage change, negative = inhibition is reported as inconclusive: 26.9%. For `COc1cc(/C=N/NC(=S)Nc2cccc(S(=O)(=O)N(C)C)c2)cc(OC)c1O`, the lipid storage change, negative = inhibition was inconclusive: -19.4%. With `S=C(Nc1ccccc1)N1CCN(C(=S)Nc2ccccc2)CC1` the lipid storage change, negative = inhibition was inconclusive: -40.8%. For `COc1ccc(C(=O)Oc2cccc(Nc3ncnc4ccccc34)c2)cc1OC`, the lipid storage change, negative = inhibition was inconclusive: 105%. For `Cc1sc(NC(=O)C2C3CCC(O3)C2C(=O)O)nc1-c1ccc(CC(C)C)cc1` (centres undefined), the lipid storage change, negative = inhibition was inconclusive: -16.5%. With `CCC(CC)C(=O)c1c[nH]c(C(=O)NCC2CCCO2)c1` (centres undefined) the lipid storage change, negative = inhibition was inconclusive: 22.4%. In the case of `O=C(COC(=O)c1ccc(Cl)c(S(=O)(=O)N2CCCCC2)c1)NCC1CCCCC1`, the Potency is reported as inconclusive: 0.058 µM [falling, full curve, poor fit]. In the case of `COC(=O)c1ccc(/C=C2\SC(=S)N(CCCC(=O)NCCCN3CCOCC3)C2=O)cc1`, the Potency is reported as inconclusive: 6.51 µM [activator, single point]. With `COc1ccc(CCN2C(=O)CC(N3CCOCC3)C2=O)cc1` (centres undefined) the lipid storage change, negative = inhibition was inconclusive: 7.12%. In the case of `CCn1c(SCC(=O)N/N=C/C=C/c2ccco2)nc2ccccc21`, the lipid storage change, negative = inhibition is reported as inconclusive: -12.2%. For `CN(C)/C=N/c1c(C#N)cnn1-c1ncnc2sc(-c3ccccc3)cc12`, the lipid storage change, negative = inhibition was inconclusive: 20.9%. With `COc1ccc(CC(=O)NNC(=S)Nc2ccc(Br)cc2)cc1` the Potency was inconclusive: 3.26 µM [activator, single point]. With `CCOC(=O)CCCSc1nc(-c2ccc3c(c2)OCO3)cc(C(F)(F)F)c1C#N` the Potency was inconclusive: 0.0326 µM [activator, full curve]. In the case of `CN(C)CCCN1C(=O)CSC1c1ccccc1` (centres undefined), the lipid storage change, negative = inhibition is reported as inconclusive: -4.56%. In the case of `COc1cc(-c2nc(-c3ccccc3)c(-c3cccs3)[nH]2)cc(OC)c1OC`, the Potency is reported as inconclusive: 3.26 µM [activator, partial curve]. In the case of `Cc1ccc(S(=O)(=O)N2CCCCC2)cc1NC(=O)CCCOc1ccccc1`, the lipid storage change, negative = inhibition is reported as “inconclusive”. In the case of `CC(C)Cc1nc2sc3c(=O)[nH]cnc3c2c2c1CCC2`, the lipid storage change, negative = inhibition is reported as inconclusive: 33.3% [activator]. In the case of `O=C1CCCCC/C1=N/Nc1ccc(OCc2ccccc2)cc1`, the lipid storage change, negative = inhibition is reported as inconclusive: -21.3%. For `COc1cccc(C2c3c(-c4ccccc4O)n[nH]c3C(=O)N2Cc2ccco2)c1` (centres undefined), the lipid storage change, negative = inhibition was inconclusive: -1.88%. With `CCO[C@@H]1OC(C(=O)O)=C[C@H](c2coc3ccccc3c2=O)[C@H]1CCCO` the lipid storage change, negative = inhibition was inconclusive: -23.8%. With `Cn1c(=S)n(/N=C/c2cccs2)c2ccccc21` the lipid storage change, negative = inhibition was inconclusive: 11.2%. With `CCOC(=O)c1c(-c2ccc(F)cc2)csc1/N=C/N(C)C` the lipid storage change, negative = inhibition was inconclusive: 6.85%. With `O=C1C2CC=CCC2C(=O)N1c1ccc(NCCc2ccccc2F)c([N+](=O)[O-])c1` (centres undefined) the lipid storage change, negative = inhibition was inconclusive: 18.1%. In the case of `Cc1cccc(NC(=O)c2ccc(Cl)c(S(=O)(=O)N3CCCCC3)c2)n1`, the Potency is reported as inconclusive: 2.91 µM [activator, partial curve]. With `Cc1ccc(C(=O)NCC(=O)N(C)Cc2ccc(Cl)cc2Cl)s1` the lipid storage change, negative = inhibition was inconclusive: 19.5%. With `O=C(N/N=C/c1c(O)n(-c2ccccc2Cl)c(=O)c2ccccc12)C1COc2ccccc2O1` (centres undefined) the Potency was inconclusive: 29.1 µM [falling, single point]. For `CC(C)CN(C(=O)CSc1nncn1C)C1CCS(=O)(=O)C1` (centres undefined), the lipid storage change, negative = inhibition was inconclusive: -5.51%. In the case of `COc1ccc(Nc2nc(N3CCN(C)CC3)nc3ccccc23)c(OC)c1`, the lipid storage change, negative = inhibition is reported as inconclusive: 50.1%. For `NC(N)=NS(=O)(=O)c1ccc(NC(=S)NC(=O)/C=C/c2ccco2)cc1`, the lipid storage change, negative = inhibition was inconclusive: -5.86%. In the case of `COc1ccc(S(=O)(=O)N2CCC(C(=O)N3CCN(C)CC3)CC2)cc1Cl`, the Potency is reported as inconclusive: 0.231 µM [activator, single point]. With `CN(CCc1cnn(C)c1)Cc1nc(Cc2ccccc2)no1` the lipid storage change, negative = inhibition was inconclusive: 10.3%. In the case of `CCC(C)NC(=O)c1ccccc1NC(=O)/C(=C/c1ccc(OC)cc1)c1ccccc1` (centres undefined), the lipid storage change, negative = inhibition is reported as inconclusive: -28.3%. For `CCOC(=O)Cn1c(=O)oc2cc(S(=O)(=O)NCc3cccs3)ccc21`, the lipid storage change, negative = inhibition was inconclusive: -4.33%. For `Cc1ccccc1C(=O)NC(=S)Nc1ccccc1[N+](=O)[O-]`, the lipid storage change, negative = inhibition was inconclusive: 56% [at 0.00295 µM]. For `CC(SCc1ccc(C(=O)O)o1)c1ccc(C(=O)O)o1` (centres undefined), the lipid storage change, negative = inhibition was inconclusive: -27.2%. For `COc1ccc(C(C)(C)C)cc1NC(=O)C1CC=CCC1C(=O)O` (centres undefined), the Potency was inconclusive: 29.1 µM [falling, single point]. In the case of `O=C(CCCO)NC1Cc2ccccc2C1`, the lipid storage change, negative = inhibition is reported as inconclusive: -21.5%. With `O=[N+]([O-])c1cc(Cl)ccc1N1CCCCC1` the lipid storage change, negative = inhibition was inconclusive: -37.4%. For `CCN(CC(=O)NCc1ccc(F)cc1)CC(=O)Nc1ccc(S(=O)(=O)N2CCCC2)cc1`, the Potency was inconclusive: 11.6 µM [activator, partial curve]. For `O=C(NCCSCc1c(F)cccc1Cl)c1ccc(CN2CCOCC2)cc1`, the lipid storage change, negative = inhibition was inconclusive: 2.24%. For `CCC1CCCCN1CC(O)COCc1cccc(OC)c1` (centres undefined), the lipid storage change, negative = inhibition was inconclusive: -1.91%. With `Cc1nc2ccccc2c(=O)n1/N=C/c1ccco1` the lipid storage change, negative = inhibition was inconclusive: 43.9%. For `Cc1cccc(Nc2nnc(SCC3CCCCO3)s2)c1` (centres undefined), the lipid storage change, negative = inhibition was inconclusive: -18.3%. For `COc1ccccc1CNC(=O)COC(=O)c1cccc(S(=O)(=O)N2CCCC2)c1`, the lipid storage change, negative = inhibition was inconclusive: -50.5%. With `Cc1cccnc1NC(=O)c1ccc(Cl)c(S(=O)(=O)N2CCCC2)c1` the lipid storage change, negative = inhibition was inconclusive: 17.6%. For `Cn1nnnc1SCC(=O)Nc1ccc(N2CCOCC2)cc1`, the lipid storage change, negative = inhibition was inconclusive: -23.6%. In the case of `CCOCCn1c(SCc2c(F)cccc2Cl)nc2c1c(=O)[nH]c(=O)n2C`, the Potency is reported as inconclusive: 5.17 µM [activator, partial curve]. For `O=C(CCN1C(=O)c2ccccc2S1(=O)=O)N1CCN(c2ccccc2)CC1`, the Potency was inconclusive: 20.6 µM [falling, partial curve, poor fit]. In the case of `CCN(CC(=O)Nc1c(F)cccc1F)C(=O)/C=C/c1ccc(C)o1`, the Potency is reported as inconclusive: 3.26 µM [activator, partial curve]. With `O=S(=O)(c1ccc(Br)cc1)N1CCC2(CC1)OCCO2` the Potency was inconclusive: 4.61 µM [activator, single point]. With `CCC1c2ccc(C)n2CCN1C(=O)Nc1ccccc1C(=O)OC` (centres undefined) the lipid storage change, negative = inhibition was inconclusive: 48.6%. In the case of `COC(CNC(=O)c1c[nH]c2ccc(S(=O)(=O)N(C)c3ccc(F)cc3)cc2c1=O)OC`, the lipid storage change, negative = inhibition is reported as inconclusive: -40.1%. In the case of `C=CCOC(=O)C1=C(C)OC(N)=C(C#N)C1c1ccco1` (centres undefined), the lipid storage change, negative = inhibition is reported as inconclusive: 37%. In the case of `Cc1cc(Oc2ccccc2)nc(SCC(=O)Nc2ccc(Cl)cc2Cl)n1`, the Potency is reported as inconclusive: 1.84 µM [rising, single point]. With `COc1cccc(NC(=O)Nc2ccc3nc(C)c(C)nc3c2)c1` the lipid storage change, negative = inhibition was inconclusive: -40%. For `CN(CC(=O)Nc1ccc(OC(F)(F)F)cc1)C(=O)Cc1c(Cl)cccc1Cl`, the Potency was inconclusive: 5.8 µM [falling, single point]. With `C=C(C)Cn1c(NCCC)nc2c1c(=O)n(C)c(=O)n2C` the lipid storage change, negative = inhibition was inconclusive: 57.4%. In the case of `O=C(NC1CCN(C(=O)NCc2ccccc2)CC1)c1cccc(F)c1`, the Potency is reported as active: 29.1 µM.
